Laboratory results: PubChem BioAssay AID686937 (Drosophila RNAi Screening Center, 2013)

- Test: 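Knock-downs that reduce output of a secreted reporter enzyme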 (primary screen)
- Cell system: Drosophila S2 cells expressing secreted horseradish peroxidase
- Knock-down reagent: long dsRNA against Drosophila genes
- Timing: about 5.5 days (5 days dsRNA, then 12 h reporter induction)
- Challenge: reporter expression induced after 5 days of dsRNA, read 12 h later; inducer not stated
- Detection: 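Chemiluminescent measurement of peroxidase in the medium 12 h after reporter induction, following 5 days of dsRNA, given as a z-score per plate; higher means more secretion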
- Reading the numbers: z-score: higher = more reporter secreted into medium
The deposit covers about 23,000 reagents; below is a random part of those with a known target gene and a result. 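Reduced-secretion tags in replicate 1 do not always agree with the z-scores; no criterion for assigning the tags was given.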 Names joined by + are all predicted targets of the reagent. Not stated in the record: the amount of reagent.

| gene | amplicon | z-score, replicate 1 | z-score, replicate 2 | phenotype, replicate 1 |
| --- | --- | --- | --- | --- |
| AP-2sigma | DRSC15957 | 0.11 | 0.34 | – |
| Ufd4 | DRSC02871 | -0.13 | 0.03 | – |
| LysE | DRSC08675 | 0.16 | 0.45 | – |
| MAPk-Ak2 | DRSC18678 | 0.05 | 0.16 | – |
| CG5346 | DRSC15778 | 0.14 | -0.18 | – |
| Tat | DRSC19602 | 0.28 | 0.35 | – |
| CG9400 | DRSC20182 | 0.28 | 0.25 | – |
| CG9269 | DRSC16465 | 0.36 | 0.04 | – |
| Lip2 | DRSC02577 | -0.12 | 0.16 | – |
| Lip2 | DRSC02578 | -0.37 | 0.22 | – |
| Osi2 | DRSC12174 | 0.11 | 0.46 | – |
| Tfb1 | DRSC07082 | -1.74 | -1.88 | reduced secretion |
| Nepl5 | DRSC03241 | 0.19 | 0.27 | – |
| CG5131 | DRSC02817 | 0.23 | 0.25 | – |
| Gr61a | DRSC08358 | 0.2 | 0.37 | – |
| CG8679 | DRSC03109 | 0.23 | 0.26 | – |
| Sox100B | DRSC15090 | -0.7 | -0.34 | – |
| Sox100B | DRSC16866 | 0.29 | 0.27 | – |
| CG13713 | DRSC08322 | 0.49 | 0.29 | – |
| twy | DRSC10562 | 0.18 | 0.23 | – |
| asRNA:CR43299 + CG8119 | DRSC20083 | 0.2 | 0.38 | – |
| CG6800 | DRSC16119 | 0.44 | 0.47 | – |
| Rbsn-5 | DRSC03094 | 0.29 | 0.35 | – |
| lace | DRSC03564 | 0.27 | 0.09 | – |
| HDAC1 | DRSC08696 | -0.29 | -0.12 | – |
| CG11309 | DRSC11650 | 0.16 | 0.26 | – |
| CG9213 | DRSC20170 | 0.32 | 0.41 | – |
| gas | DRSC04521 | 0.04 | 0.31 | – |
| CSN4 | DRSC07350 | -0.28 | -0.91 | – |
| Hr3 | DRSC06118 | -0.2 | -0.1 | – |
| Hr3 | DRSC07441 | 0.35 | 0.41 | – |
| S | DRSC00785 | -0.18 | -0.48 | – |
| CG13113 | DRSC02211 | 0.48 | 0.19 | – |

3 of these entries, reformatted:
gene | amplicon | z-score, replicate 1 | z-score, replicate 2 | phenotype, replicate 1
CG9400 | DRSC20182 | 0.28 | 0.25 | –
CG9269 | DRSC16465 | 0.36 | 0.04 | –
Lip2 | DRSC02577 | -0.12 | 0.16 | –
